PubChem BioAssay AID1259254 – NCATS, 2017

- Assay: 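Gene knock-downs that lead to re-replication, shown by excess G2 DNA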 (primary screen)
- Cells: human HCT116 colorectal cancer cells
- Knock-down reagent: single siRNA against human genes
- Time to read-out: 3 days
- Read-out: 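Nuclei stained with Hoechst and imaged; cell-cycle phase assigned by DNA content; G2 share scaled per plate, non-targeting siRNA 0%, GMNN siRNA 100%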
- Reading the numbers: G2 robust z-score and G2 cells, % of GMNN control: higher = more G2 cells, more excess DNA replication
- Hit rule: 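Active siRNAs have a G2 robust z of 5 or more median absolute deviations over the median, which in these data means about 38% or higher of GMNN control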
The deposit covers about 59,000 reagents; shown is a part drawn at random. About 1,550 of them (2.6%) count as active. 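G2 share is only a proxy for re-replication; each gene was hit by three separate siRNAs, and active genes were retested.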 Unmarked entries are inactive. Reagents against one gene are numbered here. Not all columns of the deposit are shown. Reagent sequences are not shown. The record does not give: the amount of reagent.

target gene,siRNA no.,G2 robust z-score,"G2 cells, % of GMNN control"
TREH,1,-1.05,-4.42
TREH,2,6.97 (active),52
TREH,3,-0.573,-1.07
ZNF211,1,-0.582,-1.13
ZNF211,2,0.249,4.72
ZNF211,3,-0.551,-0.909
MC5R,1,-0.72,-2.1
MC5R,2,-0.454,-0.227
MC5R,3,1.75,15.3
USP10,1,0.0758,3.5
USP10,2,-0.93,-3.58
USP10,3,-0.355,0.471
CD99,1,-1.2,-5.48
CD99,2,-0.316,0.744
CD99,3,5.39 (active),40.9
ZNF112,1,-0.893,-3.32
ZNF112,2,-0.0457,2.65
ZNF112,3,-1.07,-4.56
TACO1,1,2.18,18.3
TACO1,2,-1.15,-5.14
TACO1,3,0.0432,3.27
PEX5,1,-0.0477,2.63
PEX5,2,2.79,22.6
PEX5,3,2.46,20.3
IGLON5,1,-0.492,-0.492
IGLON5,2,-0.829,-2.87
IGLON5,3,0.113,3.76
GALNT12,1,-0.0477,2.63
GALNT12,2,-0.046,2.64
GALNT12,3,0.0279,3.16

Entries above whose gene name starts with T or t (6):
target gene,siRNA no.,G2 robust z-score,"G2 cells, % of GMNN control"
TREH,1,-1.05,-4.42
TREH,2,6.97 (active),52
TREH,3,-0.573,-1.07
TACO1,1,2.18,18.3
TACO1,2,-1.15,-5.14
TACO1,3,0.0432,3.27
